Here are results for two substances from paper PMC12334043.

Protein sequences, listed by entry. Tags and fused reporters are not part of them.
UniProt A0A0P0INT0: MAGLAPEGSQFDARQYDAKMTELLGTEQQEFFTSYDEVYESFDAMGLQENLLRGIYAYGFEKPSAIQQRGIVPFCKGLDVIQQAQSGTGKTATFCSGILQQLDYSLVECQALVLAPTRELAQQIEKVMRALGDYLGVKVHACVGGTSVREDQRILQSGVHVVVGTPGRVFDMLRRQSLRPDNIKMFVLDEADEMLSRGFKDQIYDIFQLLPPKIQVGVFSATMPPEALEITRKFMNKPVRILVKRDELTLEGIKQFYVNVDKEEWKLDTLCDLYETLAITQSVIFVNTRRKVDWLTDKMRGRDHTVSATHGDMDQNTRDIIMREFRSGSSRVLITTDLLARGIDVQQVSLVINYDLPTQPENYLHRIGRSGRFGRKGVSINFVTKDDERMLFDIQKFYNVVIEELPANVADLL

In the experiment the target is T1, CiLV-C capsid protein p29 with a C-terminal HA epitope, expressed from the infectious clone (pcDNA1-p29:HA + pcDNA2) (citrus leprosis virus C) (UniProt Q1KZ58).
T1 sequence: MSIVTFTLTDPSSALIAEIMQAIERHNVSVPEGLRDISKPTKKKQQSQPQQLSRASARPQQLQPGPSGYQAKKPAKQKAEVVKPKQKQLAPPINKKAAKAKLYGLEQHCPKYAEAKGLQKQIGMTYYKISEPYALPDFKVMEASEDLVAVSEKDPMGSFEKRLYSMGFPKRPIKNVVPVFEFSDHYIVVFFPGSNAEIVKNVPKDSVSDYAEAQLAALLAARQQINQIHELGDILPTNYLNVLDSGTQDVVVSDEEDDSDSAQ
Nature of the experiment: affinity purification with mass spectrometry; anti-HA magnetic beads (Pierce Magnetic HA-Tag kit) on extracts of N. benthamiana leaves infected with CiLV-C-p29:HA, 12 dpi; hits filtered as unique against the mock sample (healthy plant); untagged virus as control.

No constants are given. Whether binding was seen depends on the method and setting. Binding seen in cells or lysates may run through a third protein. Here binding means that the protein was enriched with, or labelled near, the bait; the list need not be complete. Sequences can lack the tags named with a protein.

With “eukaryotic initiation factor 4A (endogenous, N. benthamiana) (from UniProt A0A0P0INT0 1-413)”, the binding entry was “binds”. As for “hypersensitive-induced response protein 1-like (endogenous, N. benthamiana)”, the binding result is reported as “binds”.
